Test results reported in PubChem BioAssay AID1259354 (Paczesny and Yang Labs, IUPUI and University of Michigan, 2018).
The campaign covered roughly 78,000 compounds. About 1,800 (2.3%) were called active. Inconclusive results, whose numbers are uncertain, are shown with a selection of clear calls. Rule as the data show it: active = inhibition above about 30%; inconclusive = mostly about 10% to 28%; inactive = weaker than that.

Protein sequences, listed by entry. Tags and fused reporters are not part of them. Lines headed by an entry give the natural chain unless they say otherwise; changes in a name come on top.
UniProt Q01638: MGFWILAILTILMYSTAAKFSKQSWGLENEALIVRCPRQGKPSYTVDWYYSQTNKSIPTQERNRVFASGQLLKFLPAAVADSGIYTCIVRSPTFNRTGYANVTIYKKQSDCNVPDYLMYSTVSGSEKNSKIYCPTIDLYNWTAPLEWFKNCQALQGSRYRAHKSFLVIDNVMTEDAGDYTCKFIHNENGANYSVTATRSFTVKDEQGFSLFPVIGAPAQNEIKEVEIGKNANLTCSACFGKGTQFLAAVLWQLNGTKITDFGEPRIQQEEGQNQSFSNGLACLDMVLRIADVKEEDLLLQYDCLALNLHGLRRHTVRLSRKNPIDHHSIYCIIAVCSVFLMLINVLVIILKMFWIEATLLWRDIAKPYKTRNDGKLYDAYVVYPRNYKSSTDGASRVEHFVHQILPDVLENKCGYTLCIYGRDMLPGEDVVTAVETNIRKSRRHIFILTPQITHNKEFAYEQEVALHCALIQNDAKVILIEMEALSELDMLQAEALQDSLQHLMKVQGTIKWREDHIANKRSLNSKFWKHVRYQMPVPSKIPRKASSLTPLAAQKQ

These compounds were tested against Interleukin-1 receptor-like 1 (Homo sapiens) (UniProt Q01638) (assay: blocks human ST2 binding to IL-33, primary screen, biochemical, AlphaLISA (AID 1259354)). Details: AlphaLISA ST2-Fc/biotin-IL-33 interaction, 1 h; at 17 µM, hits give high values.

Structure (SMILES)	inhibition
CCOC(=O)c1ccc(Nc2nc3nonc3nc2NC(C)C)cc1	inconclusive: 13%
CCCN(CCC)C(=O)c1sc2nc(C)nc(N3CCCCC3)c2c1C	inconclusive: 19%
COc1ccc(NC(=O)N[C@H]2C[C@@H](c3nc(-c4ccc(OC)cc4)no3)N(C)C2)cc1	inactive
COc1cc(C2C3=C(CC(C)(C)CC3=O)OC(N)=C2[N+](=O)[O-])ccc1O (stereo not given)	inconclusive: 11%
CCOC(=O)c1sc2ncnc(NC3CCN(Cc4ccccc4)CC3)c2c1C	inconclusive: 14%
c1coc(CNc2nc(N3CCOCC3)nc3ccccc23)c1	inconclusive: 11%
COC(=O)[C@@H]1C[C@H](NC(=O)c2csc(Cc3ccccc3)n2)CN1C	inactive
COc1ccccc1NC(=O)CN1C(=O)CC(c2ccccc2)=Nc2ccccc21	inactive
Cc1ccc(NC(=O)CCC2CC(C)(C)OC2=O)cc1 (stereo not given)	inconclusive: 13%
CN1CCN(S(=O)(=O)c2cc([N+](=O)[O-])ccc2N2CCC(C(N)=O)CC2)CC1	inactive
CCOc1cc(C(=O)O/N=C(/N)c2cccnc2)cc(OCC)c1OCC	inconclusive: 11%
Cc1c(S(=O)(=O)N2CCN(c3cc(-c4ccc(F)cc4)ncn3)CC2)cnn1C(F)F	inconclusive: 11%
Cc1ccc(C(O)=C2C(=O)C(=O)N(c3nncs3)C2c2ccc(F)cc2)cc1 (stereo not given)	inactive
O=[N+]([O-])c1ccccc1-c1ccc(/C=C/c2ccncc2)o1	active: 49%
O=C1NN(c2cccc(Br)c2)C(=O)/C1=C\c1ccc(N2CCOCC2)cc1	inconclusive: 19%
O=C(c1ccccc1[N+](=O)[O-])N1CCN=C1SCc1ccccc1	inconclusive: 13%
Cc1ccnc(NC(=O)c2cccc(I)c2)c1	inactive
O=C(COc1ccc2c(c1)C(=O)CC1(CCCCC1)O2)NCc1cccnc1	inconclusive: 13%
O=C1S/C(=C\c2cccc(Br)c2)C(=O)N1c1ccc(O)cc1	inconclusive: 18%
CN1CCN2CCN(Cc3ccc(O)c(Cl)c3)CC2C1 (stereo not given)	inactive
N#Cc1ccc(-c2cccs2)nc1SCC(=O)c1ccc(F)cc1	inconclusive: 13%
O=C(CSCc1ccc(Cl)cc1)Nc1ccccc1F	inactive
Cc1cccc(C2=N/C(=C\c3ccc(C)o3)C(=O)O2)c1	active: 53%
CC(C)N(Cc1cn(C)nc1-c1ccc(C2CCCCC2)cc1)Cc1nccn1C	inconclusive: 20%

Structure (SMILES)	inhibition
COc1ccc(S(=O)(=O)N2CCc3ccccc32)cc1	inactive
Cc1cc(C)nc(CCNC(=O)c2cc(COc3ccc4c(c3)CCCC4)on2)n1	inconclusive: 16%
O=C(CSc1c2c(nc3cc(Cl)ccc13)CCCC2)N1CCCC1	inconclusive: 12%
CCC(=O)N1CCc2cc(Br)cc(S(=O)(=O)NCCCN3CCC(C)CC3)c21	inconclusive: 14%
Cc1cc(OCC(O)CN2CCN(c3ccccc3)CC2)ccc1Cl (stereo not given)	inactive
CC(=O)c1cccc(N2CN=c3s/c(=C\c4cccc([N+](=O)[O-])c4)c(=O)n3C2)c1	inconclusive: 16%
Oc1c(C=NCCc2ccccc2)[nH]c2ccc(Br)c(Cl)c12	active: 32%
CCOC(=O)C1C(=O)C=C(c2ccc(C)cc2)CC1c1ccc(OC)cc1 (stereo not given)	inconclusive: 10%
CCOc1ccc(C(=O)Nc2ccc3nn(-c4ccc(OC)c(Cl)c4)nc3c2)cc1[N+](=O)[O-]	active: 40%
CN(C(=O)c1ccc(=O)[nH]c1)C1CCCc2ccccc21 (stereo not given)	inconclusive: 13%
N#C/C(=C/Nc1ccccc1[N+](=O)[O-])c1nc(-c2ccc3c(c2)OCO3)cs1	inconclusive: 22%
Cc1ccccc1-n1nc2c(c1NC(=O)c1ccc(C(C)(C)C)cc1)CS(=O)C2 (stereo not given)	inactive
N[C@@H](Cc1cnc[nH]1)C(=O)O	inconclusive: 14%
COc1cc2c(C(=O)Nc3ccc4c(c3)OCCO4)cn(C)c(=O)c2cc1OC	inactive
Cc1ccc(-n2c(CCC(=O)O)ccc2-c2ccccc2)cc1Cl	inconclusive: 25%
O=C(Nc1ccccc1F)C1c2ccccc2C(=O)N2CCc3ccccc3C12 (stereo not given)	inactive
CCN(CC)c1ccc(C(=O)Nc2nc3ccc4sc(C)nc4c3s2)cc1	inactive
CCc1ccccc1NC(=O)CN1CCCN(Cc2cccc(F)c2)S1(=O)=O	inactive
CCCCn1cnc2cc(NCc3ccc(C)cc3)ccc21	inconclusive: 17%
CCNC(=O)O[C@@H]1CO[C@H]2[C@@H]1OC[C@@H]2NS(=O)(=O)c1ccccc1C#N	inconclusive: 14%
CC1(C)CC(=O)C(Sc2ccc(Br)cc2)=C(OC(=O)c2cccs2)C1	inconclusive: 11%
O=C(CSc1nnc(Cc2cc(=O)[nH]c(=O)[nH]2)n1-c1ccccc1)Nc1ccccc1	inconclusive: 14%
O=C(c1ccccc1OC1CCN(Cc2cccc(C(F)(F)F)c2)CC1)N1CCCCC1	inactive
CC1C=CCC2C(=O)N(c3ccc4c(c3)CCC4)C(=O)C12 (stereo not given)	inconclusive: 16%

Quoted from the listing.
`CN1CCN(S(=O)(=O)c2cc([N+](=O)[O-])ccc2N2CCC(C(N)=O)CC2)CC1` | inhibition: inactive
`CN1CCN2CCN(Cc3ccc(O)c(Cl)c3)CC2C1` (stereo not given) | inhibition: inactive
`COC(=O)[C@@H]1C[C@H](NC(=O)c2csc(Cc3ccccc3)n2)CN1C` | inhibition: inactive
`Cc1cc(C)nc(CCNC(=O)c2cc(COc3ccc4c(c3)CCCC4)on2)n1` | inhibition: inconclusive: 16%
`COc1ccc(S(=O)(=O)N2CCc3ccccc32)cc1` | inhibition: inactive

Additional compounds:

Structure (SMILES)	inhibition
O=C(CCn1c(=O)c2sccc2n(Cc2ccc(F)cc2Cl)c1=O)NCc1ccccc1	inactive
O=C(c1cc2n(n1)CCN(Cc1ccc3nonc3c1)C2)N1CCCC1	inconclusive: 15%
Cc1nc2ccccc2c2oc(C(=O)Nc3ccccc3F)cc12	inconclusive: 16%
C[C@H]1Cc2ccccc2C(=O)N1	inactive
O=C(Nc1cccnc1)c1cc(-c2cccs2)on1	inconclusive: 11%
Cc1oc(-c2ccc(Cl)cc2)nc1CSCC(=O)NCCCN1CCCC1	inactive
CC(=O)N1C(C)c2ccccc2C(C)(C)CC12CCCCC2 (stereo not given)	inconclusive: 18%
CCC(SC1=Nc2ccccc2C2=NC(C(C)CC)C(=O)N12)C(=O)NCc1cccnc1 (stereo not given)	inactive
O=C(CN1N=NC2C(=O)N(c3ccccc3)C(=O)C21)Nc1cc(F)ccc1F (stereo not given)	inconclusive: 12%
CC(C)Cc1cc(C(=O)Nc2cnn(Cc3ccc(Cl)cc3Cl)c2)no1	inconclusive: 15%
CN1CCC(CNC(=O)CCSc2ccc3c(c2)OCCO3)C1 (stereo not given)	inconclusive: 23%
Fc1ccc(-n2nc3ccc4nonc4c3n2)cc1	inconclusive: 25%
Cc1nc(C(C)NC2CCN(S(C)(=O)=O)CC2)n[nH]1 (stereo not given)	inactive
CCOc1ccc(S(=O)(=O)Nc2cccc3c2CCCC3)c2cccnc12	inactive
CO[C@H]1/C=C/[C@@](C)(O)/C=C/C(=O)O[C@H](C)[C@@H](C)CC/C=C/1C	inconclusive: 16%
COc1ccc(/C=C2\N=C(c3cccs3)OC2=O)c(OC)c1OC	inconclusive: 24%
Cn1ccnc1CN(C(=O)Cc1noc2ccccc12)C1CC1	inconclusive: 15%
Cc1cc(C)c(S(=O)(=O)N2CCC(C(N)=O)CC2)c(C)c1	inconclusive: 10%
O=C1CCCc2c1[nH]c1ccc(OCc3ccccc3)cc21	inconclusive: 14%
COc1ccccc1N1CCN([C@H]2[C@@H]3OC[C@@H](O3)[C@@H](NCc3ccccc3O)[C@@H]2O)CC1	inconclusive: 13%
O=C1OC(c2ccccc2Br)=N/C1=C\c1ccccc1	inconclusive: 10%
CCN(CC)c1cc(N2[C@@H]3CC[C@H]2CC(O)C3)nc(N)n1 (stereo not given in full)	inconclusive: 20%
CCOc1ccc(C2OC(=O)Cc3cc(OCC)c(OCC)cc32)cc1OCC (stereo not given)	inconclusive: 16%
COc1cccc(N2CCN(Cc3cccs3)CC2)c1	inactive

Structure (SMILES)	inhibition
Cc1nn(Cc2ccc(F)cc2)c(C)c1NC(=O)c1noc2c1CCCCC2	inconclusive: 14%
CCOC(=O)c1nn(CCC(C)C)c2c1CN(C(=O)c1nn(C)c(=O)c3ccccc13)CC2	inactive
CC1=NN(c2ccc(I)cc2)C(=O)/C1=C/c1ccc(N(C)C)cc1	active: 38%
Cc1nc2c(-c3ccc(F)cc3)c(C)nn2c(C)c1CCC(=O)NCc1ccc2c(c1)OCO2	inconclusive: 13%
Cc1cc(C)c(S(=O)(=O)NCc2ccncc2)cc1C	inactive
CCN(CC)C(=O)CN1C(=O)CSc2ccc(S(=O)(=O)N3CCCCC3)cc21	inconclusive: 15%
COc1cc(NC(=O)NCCc2nc3cccnc3n2C2CCCCC2)cc(OC)c1	inconclusive: 17%
CCCc1ccc(Oc2c(-c3ccc(O)cc3O)n[nH]c2C)cc1	inactive
COc1ccc(C)cc1NC(=O)CNC(=O)c1cc2n(n1)CCCN(C)C2	inconclusive: 11%
CCC1CCCCN1S(=O)(=O)c1ccc2[nH]c(=O)cc(C(=O)NC3CCCCCC3)c2c1 (stereo not given)	inactive
CCOc1ncccc1-c1ccc(-c2nn[nH]n2)cc1	inconclusive: 27%
NC(=O)c1cc(-c2ccc(Br)cc2)no1	inconclusive: 11%
CCSC1=N/C(=C\c2ccc(N(CC)CC)cc2OC)C(=O)S1	active: 65%
CC(C)(C)c1ccc(S(=O)(=O)N2CCCCC2C(=O)O)cc1 (stereo not given)	inactive
Cc1c(Cl)cccc1NC(=O)CN1CCCN(Cc2cccc(F)c2)S1(=O)=O	inactive
NC1=NC2(CCCCC2)N(c2ccc(O)cc2)C(N)=N1	inactive
Cc1ccccc1C1CCCN1C(=O)c1cccc(NCC(=O)O)c1 (stereo not given)	inactive
Cc1nc2nc(SCC(=O)NCC3COc4ccccc4O3)nn2c(C)c1Cc1ccccc1 (stereo not given)	inconclusive: 19%
Cc1ccc(S(=O)(=O)NC[C@H]2O[C@@H](CO)[C@@H](O)[C@H]2N2CCOCC2)cc1	inconclusive: 10%
COC(=O)c1cc2n(n1)CCN(C(=O)CN(C)Cc1ccncc1)C2	inactive
CCNC(=O)C1CCN(C(=O)c2cc(Cn3cnc4ccccc43)[nH]n2)C1 (stereo not given)	inconclusive: 12%
CN(CCn1cccn1)c1nc(-c2cccnc2)nc2c1cnn2C	inactive
CCOc1ccc(C(Nc2ccccn2)c2ccc3ccc(C)nc3c2O)cc1C (stereo not given)	inconclusive: 24%

Not a retest: 2 of the compounds above.
Structure (SMILES)	inhibition
Cc1cc(C)c(S(=O)(=O)NCc2ccncc2)cc1C	inactive
CCN(CC)C(=O)CN1C(=O)CSc2ccc(S(=O)(=O)N3CCCCC3)cc21	inconclusive: 15%
